Experimental data published in patent US20120184006A1, “Reductase Enzymes” (UTAH STATE UNIVERSITY, priority 2011, published 2012).
At least one structure is not confirmed: it was looked up by name or label, or the drawing left a doubt.

Tested on: M. aquaeolei VT8 enzyme (FACoAR)
Experiment: Aldehyde trapping with hydrazine in NADPH and DTNB assays
Type: biochemical, Marinobacter aquaeolei VT8
Conditions: 5 mM in the buffer; data not shown

NN [hydrazine]
effect on initial rate of NADPH oxidation and total quantity of NADPH consumed vs control: little difference
